Measured values taken from US12685490B2 (The Board of Trustees of the Leland Stanford Junior …, priority 2020, dated 2026).
Part of at least one peptide drawing is inferred or uncertain, most often the ends. Residues, ends and D or L forms follow the SMILES beside them.

Experiments:
IAPP [1] = target: T1, IAPP (Homo sapiens, UniProt P10997); test: Thioflavin T (ThT) binding assay of IAPP fibrillogenesis; type: biochemical; details: IAPP 16.5 μM, up to 10-fold molar excess of peptide
T1 construct: made in house; host or cells: chemical synthesis (Fmoc solid-phase, Rink resin)
T1 sequence (P10997 34-70 limits assumed): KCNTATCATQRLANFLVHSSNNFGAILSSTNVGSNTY
Protocol: Of note, an incubation of LL-37 alone was also included. At the indicated time points aliquots were mixed with the ThT solution consisting of 20 μM ThT in 0.05 M glycine/NaOH (pH 8.5) and binding was determined by measuring fluorescence emission at 486 nm upon excitation at 450 nm using a Multilabel reader VictorX3 (Perkin Elmer Life Sciences). […] An aliquot of a solution consisting mostly of IAPP fibrils (fIAPP) based on ThT binding and TEM (FIGS. 18-19) (7 days aged IAPP (16.5 μM) made as above) was added to the incubations resulting in a final seed (fIAPP) concentration of 1.65 μM. Incubations of (unseeded) IAPP alone (16.5 μM) and of 10% fIAPP alone were included as controls. ThT binding was determined at the indicated time points as above. […] Solutions containing (unseeded) IAPP alone (16.5 μM), IAPP seeded with fIAPP (10%), and IAPP seeded with LL-37-treated fIAPP (10%) were made in ThT assay buffer and kinetics of fibrillogenesis were determined by the ThT binding assay as described above.

IAPP [2] = target: T1, IAPP; test: Far-UV CD spectroscopy of IAPP conformation and misfolding; details: 1/1, 5 μM each, pH 7.4
Protocol: Far-UV CD studies were performed using a Jasco 715 spectropolarimeter. Spectra were recorded at room temperature between 195 and 250 nm, at 0.1 nm intervals, and with a response time of 1 second. Each spectrum is an average of 3 spectra. All CD studies were performed in aqueous 10 mM sodium phosphate buffer (pH 7.4) containing 1% HFIP (CD assay buffer) at room temperature; this assay system has been earlier developed and found to be suitable for following kinetics of IAPP (5 μM) misfolding into β-sheets and amyloid fibrils alone or in the presence of inhibitors. Briefly, peptide stocks in HFIP were freshly made (4° C.), diluted with assay buffer (room temperature) at the indicated concentrations within the cuvette, and following gentle mixing spectra were measured immediately or at the indicated incubation time points. […] The CD spectrum of IAPP at the incubation time point of 24 h (endpoint) was measured after gentle mixing to re-dissolve precipitated aggregates. The CD spectrum of the buffer was always subtracted from the CD spectra of the peptide solutions.

IAPP [3] = target: T1, IAPP; test: Cross-linking, NuPAGE and Western blot; details: IAPP 30 μM, 1/1, pH 7.4
Protocol: Cross-linking studies were preformed using a previously developed assay system. […] Solutions were cross-linked using 25% aqueous glutaraldehyde (Sigma-Aldrich) and 10% aqueous trichloroacetic acid (TCA) was used to precipitate cross-linked peptides. Pellets were dissolved in reducing NuPAGE sample buffer, boiled for 5 min, and subjected to NuPAGE electrophoresis in 4-12% Bis-Tris gels with MES running buffer (Invitrogen). The same volume of each solution (same IAPP amount) was loaded in all lanes. Peptides were blotted using a XCell II Blot Module blotting system (Invitrogen).

CC[C@H](C)[C@H](NC(=O)[C@H](CCCCN)NC(=O)[C@H](CO)NC(=O)[C@H](Cc1ccccc1)NC(=O)[C@H](CCC(=O)O)NC(=O)[C@H](Cc1ccccc1)NC(=O)[C@H](CCCNC(=N)N)NC(=O)[C@H](CC(C)C)NC(=O)[C@H](CCCCN)NC(=O)[C@H](CC(C)C)NC(=O)CN)C(=O)N[C@@H](CCCCN)C(=O)NCC(=O)N[C@@H](CCC(=O)O)C(=O)N[C@@H](Cc1ccccc1)C(=O)N[C@@H](CC(C)C)C(=O)N[C@@H](CCCCN)C(=O)N[C@H](C(=O)N1CCC[C@H]1C(=O)N[C@@H](CCC(=O)O)C(=O)N[C@H](C(=O)N[C@@H](CCCNC(=N)N)C(=O)N[C@@H](Cc1ccccc1)C(=O)N[C@@H](CCCNC(=N)N)C(=O)N[C@@H](CC(=O)O)C(=O)N[C@H](C(=O)N[C@@H](CCCCN)C(=O)N[C@@H](CC(C)C)C(=O)N[C@@H](CCCCN)C(=O)N[C@@H](CC(=O)O)C(=O)N[C@@H](CC(N)=O)C(=O)N[C@@H](CCCNC(=N)N)C(=O)N[C@H](C(=O)N[C@@H](CO)C(=O)N[C@H](C(=O)N[C@@H](CCC(N)=O)C(=O)N[C@@H](CCCNC(=N)N)C(=O)O)C(C)C)[C@@H](C)CC)[C@@H](C)CC)C(C)C)[C@@H](C)O [scrLL-37, reference compound] (H-GLKLRFEFSKIKGEFLKTPEVRFRDIKLKDNRISVQR-OH)
effect on IAPP fibrillogenesis (IAPP [1]): unable to inhibit
effect on IAPP conformation / misfolding (IAPP [2]): did not affect IAPP conformation
hetero-assemblies with IAPP by cross-linking (IAPP [3]): no new bands were observed
